In patent US20250127887A1 (priority 2021, published 2025):

Test: general procedure: Fmoc solid-phase peptide synthesis
Details: for conjugation yield / final HPLC purity / crude HPLC purity: conjugation step; for outcome: whole synthesis

Row | Substance | conjugation yield | final HPLC purity (254 nm) | also measured
1 | DBCO-(Glu(2B)3(Trp)2) | 50.6% | >95% AUC at 254 nm | –
2 | TT-PEG12-(N3-DBCO)-Ahx-W5 | – | – | crude HPLC purity (AUC at 220 nm): 83%
3 | (COOH-ethyl)4-PEG24-PEG12-(N3-DBCO)-Ahx-W5 | 62.3% | – | final HPLC purity (AUC at 220 nm): 94.6%
4 | DBCO-Ahx-(Glu)3(Trp)2 | – | – | final HPLC purity (220 nm): >95% AUC at 220 nm
5 | DBCO-(Glu(2B)6(Trp)4) | – | >95% AUC at 254 nm | –
6 | {COOH-PEG24}4-{propargyl}4K2K{Lys(N3)}-DBCO-2-Amino-1,3-bis(carboxylethoxy)propane(2BXy)4 | – | – | final HPLC purity (254 nm, run 1): 98.0% AUC at 254 nm; final HPLC purity (254 nm, run 2): 90.4% AUC at 254 nm; conjugation yield (run 1): 70.3%; conjugation yield (run 2): 71.0%
7 | {NH2—PEG24}4-{propargyl}4K2K{Lys(N3)}-DBCO-2-Amino-1,3-bis(carboxylethoxy)propane(2BXy)4 | – | – | final HPLC purity (254 nm, run 1): 95.5% AUC at 254 nm; final HPLC purity (254 nm, run 2): 67.7% AUC at 254 nm; conjugation yield (run 1): 58.4%; conjugation yield (run 2): 68.0%
8 | {OH-PEG24}4-{propargyl}4K2K{Lys(N3)}-DBCO-Ahx-(F′)10 | 64.6% | 94.1% AUC at 254 nm | –
9 | DBCO-Ahx-W5 | 71.9% | 92.6% AUC at 254 nm | –
10 | {propargyl}4K2K{Lys(N3)}-DBCO-2-Amino-1,3-bis(carboxylethoxy)propane(Doxorubicin)4 | 40.9% | 91.3% AUC at 254 nm | –
11 | DBCO-(Glu(2B)5(Trp)10(Gly)15) | 26% | – | –
12 | {OH-PEG24}4-{propargyl}4K2K{Lys(N3)}-DBCO-2- Amino 1,3-bis(carboxylethoxy)propane(2BXy)4 | 70.5% | 99.3% AUC at 254 nm | –
13 | DBCO-Ahx-F′ 5 | 41.5% | >95% AUC at 254 nm | –
14 | K8-PEG24-(N3-DBCO)-Ahx-W5 | – | – | crude HPLC purity (254 nm): 90.2% AUC at 254 nm
15 | {propargyl}4K2K{Lys(N3)}-DBCO-Ahx-(F′)10 | – | – | crude HPLC purity (254 nm): 96.1% AUC at 254 nm
16 | DBCO-(Glu(2BXy)3(Trp)2) | 38.1% | – | –
17 | TT-PEG24-(N3-DBCO)-Ahx-W5 | – | – | crude HPLC purity (AUC at 220 nm): 84%
18 | (Mannose-PEG3)4-PEG24-PEG12-(N3-DBCO)-Ahx-W5 | 47.9% | – | final HPLC purity (AUC at 220 nm): 96.2%
19 | DBCO-2-Amino-1,3-bis(carboxylethoxy)propane(Ahx-W5)2 | 30.8% | >95% AUC at 254 nm | –
20 | (Mannose-PEG3)4-PEG24-PEG24-Ahx-W5 | 40.9% | – | final HPLC purity (AUC at 220 nm): 98.2%

Row | Substance | conjugation yield | final HPLC purity (254 nm) | also measured
21 | {OH-PEG24}4-{propargyl}4K2K{Lys(N3)}-DBCO-2-Amino-1,3-bis(carboxylethoxy)propane(Doxorubucin)4 | 69.3% | 95.8% AUC at 254 nm | –
22 | (CPNE1 LP)4-2323-(N3-DBCO)-Ahx-2B3W2 | – | – | final HPLC purity (AUC at 220 nm): >90%
23 | DBCO-(Glu(2B)5(Gly)10) | 36.2% | >95% AUC at 254 nm | –
24 | FWFWFWFWFW | – | – | outcome: N
25 | (NH2-ethyl)2-PEG24-(N3-DBCO)-Ahx-2B3W2 | 38.4% | – | crude HPLC purity (220 nm): 89.6% AUC at 220 nm
26 | DBCO-Ahx-Glu(2B)3(Trp)2 | 60% | – | final HPLC purity (220 nm): >95% AUC at 220 nm
27 | DBCO-(Glu(2B)2(Trp)8) | 16.3% | >95% AUC at 254 nm | –
28 | (CPNE1 min)4-2323-(N3-DBCO)-Ahx-2B3W2 or (SSPYSLHYL)4-2323-(N3-DBCO)-Ahx-2B3W2 | – | – | final HPLC purity (AUC at 220 nm): >90%
29 | {COOH-PEG25}4-{NH2}4K2K{Lys(N3)}-DBCO-Ahx-W5 | – | – | crude HPLC purity (AUC at 220 nm): 94.3%
30 | DBCO-(Glu(2B)2(Trp)3) | 62.5% | >95% AUC at 254 nm | –
31 | DBCO-Ahx-(F′)20 | 20.5% | 94.4% AUC at 254 nm | –
32 | DBCO-Ahx-F′10 | 50.6% | >95% AUC at 254 nm | –
33 | {propargyl}4K2K{Lys(N3)}-DBCO-2-Amino-1,3-bis(carboxylethoxy)propane(2BXy)4 | 47.5% | 98.6% AUC at 254 nm | –
34 | DBCO-2-Amino-1,3-bis(carboxylethoxy)propane(Ahx-F′ 10)2 | 26.8% | 83.4% AUC at 254 nm | –
35 | DBCO-(Glu(2BXy)1(Trp)4) | 73.3% | >95% AUC at 254 nm | –
36 | LLLLLLLLLL | – | – | outcome: N
37 | DBCO-(Glu(2B)4(Trp)6) | – | >95% AUC at 254 nm | –
38 | WWWWWWWWWW | – | – | outcome: Crude
39 | FFFFFFFFFF | – | – | outcome: N
40 | DBCO-(Glu(2B)1(Trp)4) | 55.4% | >95% AUC at 254 nm | –

Plain letter strings leave the end groups untold.
